{"source": "PubChem BioAssay AID1259424 (University of Nebraska Medical Center, 2018)", "purpose": "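Rank knockdowns across the genome by resemblance to the KSR1 depletion profile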 (primary screen)", "cell system": "human HCT116 colon cancer cells", "knock-down reagent": "siRNA pool against human genes, 50 nM", "read-out": "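Six signature mRNAs by branched-DNA multiplex assay, scaled to two housekeeping genes and non-targeting median, log2; matched to mean KSR1 knockdown profile by Pearson correlation and euclidean distance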", "direction": "mean correlation with KSR1 profile: higher = expression change more like KSR1 knockdown; mean distance from KSR1 profile: higher = expression change less like KSR1 knockdown", "note": "The whole screen tested about 14,000 reagents; shown is a random part of them. 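Higher correlation or smaller distance means closer resemblance to KSR1 loss; control wells, including KSR1 knockdowns, recur on many plates.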 Some reagents were tested in more than one well and are listed for each. Further read-outs or replicates are left out here. Not stated in the record: the time to read-out."}
{"gene knocked down":"PKP3","mean correlation with KSR1 profile":0.204,"mean distance from KSR1 profile":1.29}
{"gene knocked down":"NOLC1","mean correlation with KSR1 profile":0.532,"mean distance from KSR1 profile":2.52}
{"gene knocked down":"ACOX1","mean correlation with KSR1 profile":-0.463,"mean distance from KSR1 profile":2.26}
{"gene knocked down":"GREM2","mean correlation with KSR1 profile":0.462,"mean distance from KSR1 profile":13.4}
{"gene knocked down":"WBP4","mean correlation with KSR1 profile":-0.618,"mean distance from KSR1 profile":1.78}
{"gene knocked down":"UBL7","mean correlation with KSR1 profile":0.0886,"mean distance from KSR1 profile":1.54}
{"gene knocked down":"ZNF16","mean correlation with KSR1 profile":-0.276,"mean distance from KSR1 profile":2.92}
{"gene knocked down":"CD5L","mean correlation with KSR1 profile":-0.732,"mean distance from KSR1 profile":1.81}
{"gene knocked down":"PIWIL1","mean correlation with KSR1 profile":-0.125,"mean distance from KSR1 profile":3.58}
{"gene knocked down":"FMOD","mean correlation with KSR1 profile":-0.26,"mean distance from KSR1 profile":2.95}
{"gene knocked down":"MT-ND3","mean correlation with KSR1 profile":-0.562,"mean distance from KSR1 profile":2.63}
{"gene knocked down":"CCL2","mean correlation with KSR1 profile":0.409,"mean distance from KSR1 profile":2.6}
{"gene knocked down":"CCL2","mean correlation with KSR1 profile":0.0221,"mean distance from KSR1 profile":4.51}
{"gene knocked down":"CD276","mean correlation with KSR1 profile":0.681,"mean distance from KSR1 profile":2.06}
{"gene knocked down":"YTHDF2","mean correlation with KSR1 profile":0.565,"mean distance from KSR1 profile":2.9}
{"gene knocked down":"GNAI1","mean correlation with KSR1 profile":0.282,"mean distance from KSR1 profile":3.01}
{"gene knocked down":"PPP4R3A","mean correlation with KSR1 profile":-0.483,"mean distance from KSR1 profile":1.98}
{"gene knocked down":"BMP4","mean correlation with KSR1 profile":0.736,"mean distance from KSR1 profile":1.19}
{"gene knocked down":"TCF4","mean correlation with KSR1 profile":-0.19,"mean distance from KSR1 profile":2.82}
{"gene knocked down":"IGHMBP2","mean correlation with KSR1 profile":-0.0716,"mean distance from KSR1 profile":1.82}
{"gene knocked down":"LMX1B","mean correlation with KSR1 profile":0.0466,"mean distance from KSR1 profile":1.68}
{"gene knocked down":"SPHAR (retired record)","mean correlation with KSR1 profile":0.0993,"mean distance from KSR1 profile":2.41}
{"gene knocked down":"LALBA","mean correlation with KSR1 profile":0.357,"mean distance from KSR1 profile":1.16}

Look-ups from the list.
Result of CD5L in “mean distance from KSR1 profile”: 1.81
Entry for YTHDF2 under “mean correlation with KSR1 profile”: 0.565
For “mean correlation with KSR1 profile”, UBL7 reads 0.0886
Entry of PKP3 under “mean distance from KSR1 profile”: 1.29
MT-ND3, mean distance from KSR1 profile = 2.63

The results go on.
{"gene knocked down":"HK1","mean correlation with KSR1 profile":0.767,"mean distance from KSR1 profile":1.53}
{"gene knocked down":"CCNA2","mean correlation with KSR1 profile":-0.0178,"mean distance from KSR1 profile":2.14}
{"gene knocked down":"SSX4","mean correlation with KSR1 profile":-0.235,"mean distance from KSR1 profile":2.49}
{"gene knocked down":"DERL2","mean correlation with KSR1 profile":-0.374,"mean distance from KSR1 profile":3.61}
{"gene knocked down":"STBD1","mean correlation with KSR1 profile":-0.126,"mean distance from KSR1 profile":1.62}
{"gene knocked down":"TUSC2","mean correlation with KSR1 profile":0.191,"mean distance from KSR1 profile":3.33}
{"gene knocked down":"IFI35","mean correlation with KSR1 profile":0.685,"mean distance from KSR1 profile":2.02}
{"gene knocked down":"ACSBG2","mean correlation with KSR1 profile":0.0364,"mean distance from KSR1 profile":2.68}
{"gene knocked down":"XKR6","mean correlation with KSR1 profile":0.678,"mean distance from KSR1 profile":1.43}
{"gene knocked down":"PHLDB1","mean correlation with KSR1 profile":-0.435,"mean distance from KSR1 profile":2.77}
{"gene knocked down":"SPMIP6","mean correlation with KSR1 profile":0.571,"mean distance from KSR1 profile":1.16}
{"gene knocked down":"KDM8","mean correlation with KSR1 profile":0.493,"mean distance from KSR1 profile":1.8}
{"gene knocked down":"NDFIP2","mean correlation with KSR1 profile":-0.542,"mean distance from KSR1 profile":6.61}
